US20240307819A1, “ELECTROCHEMICAL TARGET SPECIES CAPTURE WITH A REDOX-ACTIVE AMINE” (Massachusetts Institute of Technology, priority 2021, published 2024)

Legend:
[1] = Electrochemical release of CO2 by constant-current oxidation in an H-cell (electron utilization); details: 0.2 M in 5 mL water, 1 M potassium nitrate, 50 mA for 62 min, full conversion
Protocol: FIGS. 5A-5F are related to electrochemical release of CO2. FIG. 5A is a schematic of the experimental setup for CO2 release. […] The amount of released CO2 (curve A) and electron utilization (curve B) are shown versus electric charge.
A bench-scale setup using an electrochemical H-cell was constructed and tested for the capture and release of CO2 (FIG. 5A). The system was equipped with an anion exchange membrane separating two 5 mL reaction chambers, carbon felt as a working electrode, and a stainless steel wire electrode for an arbitrary reaction in the counter chamber. […] Then, pure CO2 was bubbled into the solution for 10 min to complete the saturation of the electrochemically generated 1-Apyl radical dimer 3 solution. […] The electron utilization (εCO2) during CO2 release on oxidation represents the ratio between the moles of CO2 released and the moles of electrons transferred (equation 1): […]

[2] = benchmark MEA process; cited from earlier work

| SMILES | Faradaic efficiency of reduction to the radical [1] [%] | energy required for the benchmark process [2] [kcal/mol] |
| --- | --- | --- |
| N[n+]1ccccc1 [1-AP nitrate, 1-aminopyridinium] | 53 | – |
| NCCO [MEA, monoethanolamine] | – | 9.56 to 19.1 |
